PubChem BioAssay AID1259425 – University of Nebraska Medical Center – 2018
The deposit covers about 14,000 reagents; below is a part drawn at random. Reagent sequences are not shown. Not given: the time to read-out.

- Purpose: 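Compare each knockdown with KSR1 silencing using changes in marker transcripts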 (primary screen)
- Cells: HCT116 human colon cancer cells
- Reagents: siRNA pool against human genes, 50 nM siRNA
- Read-out: 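After 50 nM siRNA pool, branched-DNA assay measures six marker transcripts per well, minus blank, normalised to the geometric mean of two housekeeping transcripts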
- Reading the numbers: BNIP3L mRNA: higher = more BNIP3L transcript after knockdown; NDRG1 mRNA: higher = more NDRG1 transcript after knockdown; BNIP3 mRNA: higher = more BNIP3 transcript after knockdown; ALDOC mRNA: higher = more ALDOC transcript after knockdown; ACSL5 mRNA: higher = more ACSL5 transcript after knockdown

gene knocked down | BNIP3L mRNA, set 1 | NDRG1 mRNA, set 1 | BNIP3 mRNA, set 1 | ALDOC mRNA, set 1 | ACSL5 mRNA, set 1
RETNLB | 0.164 | 0.153 | 0.212 | 0.05 | 0.214
HROB | 0.0612 | 0.242 | 0.227 | 0.00744 | 0.228
ZWINT | 0.0842 | 1.03 | 0.264 | 0.0217 | 0.138
H4C7 | 0.0927 | 0.319 | 0.288 | 0.00925 | 0.0417
RASAL3 | 0.122 | 0.23 | 0.317 | 0.0226 | 0.151
H3C4 | 0.096 | 0.208 | 0.262 | 0.0271 | 0.126
MFN1 | 0.114 | 0.0868 | 0.392 | 0.0189 | 0.081
TMEM45A | 0.0727 | 0.0958 | 0.319 | 0.0167 | 0.119
WDHD1 | 0.117 | 0.109 | 0.378 | 0.0611 | 0.148
TRAM1 | 0.116 | 0.136 | 0.309 | 0.0253 | 0.063
RASA1 | 0.0934 | 0.126 | 0.26 | 0.0224 | 0.16
TEX13B | 0.187 | 0.247 | 0.659 | 0.063 | 0.307
FADS3 | 0.135 | 0.321 | 0.389 | 0.0218 | 0.14
RPL3L | 0.083 | 0.031 | 0.308 | 0.035 | 0.225
GYPB | 0.0953 | 0.144 | 0.242 | 0.0228 | 0.0802
BCL2L2 | 0.0685 | 0.225 | 0.283 | 0.0147 | 0.248
AKR1C3 | 0.106 | 0.119 | 0.307 | 0.00922 | 0.189
SNAPC5 | 0.0765 | 0.182 | 0.18 | 0.0149 | 0.0896
TBC1D19 | 0.0671 | 0.106 | 0.244 | 0.0251 | 0.11
FIGNL1 | 0.0544 | 0.161 | 0.2 | 0.0267 | 0.234
FLNC | 0.114 | 0.207 | 0.136 | 0.013 | 0.122
CHST5 | 0.189 | 0.701 | 0.674 | 0.0446 | 0.38
CDK8 | 0.0816 | 0.203 | 0.37 | 0.00984 | 0.214
GOLPH3 | 0.222 | 0.303 | 0.249 | 0.0408 | 0.472
NCOA1 | 0.0791 | 0.211 | 0.244 | 0.0227 | 0.238
E2F8 | 0.197 | 0.756 | 0.346 | 0.0219 | 0.278
PITPNB | 0.117 | 0.137 | 0.29 | 0.0246 | 0.176
SIGLEC11 | 0.108 | 0.126 | 0.293 | 0.00876 | 0.359
PELP1 | 0.0852 | 0.0848 | 0.228 | 0.0137 | 0.123

The list goes on (9 carried over from the part before).
gene knocked down | BNIP3L mRNA, set 1 | NDRG1 mRNA, set 1 | BNIP3 mRNA, set 1 | ALDOC mRNA, set 1 | ACSL5 mRNA, set 1
FLNC | 0.114 | 0.207 | 0.136 | 0.013 | 0.122
CHST5 | 0.189 | 0.701 | 0.674 | 0.0446 | 0.38
CDK8 | 0.0816 | 0.203 | 0.37 | 0.00984 | 0.214
GOLPH3 | 0.222 | 0.303 | 0.249 | 0.0408 | 0.472
NCOA1 | 0.0791 | 0.211 | 0.244 | 0.0227 | 0.238
E2F8 | 0.197 | 0.756 | 0.346 | 0.0219 | 0.278
PITPNB | 0.117 | 0.137 | 0.29 | 0.0246 | 0.176
SIGLEC11 | 0.108 | 0.126 | 0.293 | 0.00876 | 0.359
PELP1 | 0.0852 | 0.0848 | 0.228 | 0.0137 | 0.123
SHROOM2 | 0.149 | 0.377 | 0.355 | 0.0398 | 0.147
CCDC81 | 0.0846 | 0.149 | 0.243 | 0.0256 | 0.157
MYH7 | 0.0887 | 0.117 | 0.259 | 0.0153 | 0.1
RAB9B | 0.161 | 0.18 | 0.267 | 0.0383 | 0.0823
BARD1 | 0.0424 | 0.0564 | 0.238 | 0.0274 | 0.217
SRP54 | 0.126 | 0.443 | 0.359 | 0.0927 | 0.145
CD24 | 0.0504 | 0.148 | 0.307 | 0.0114 | 0.181
TRIM28 | 0.0655 | 0.113 | 0.196 | 0.034 | 0.228
QPCTL | 0.0733 | 0.0965 | 0.275 | 0.00953 | 0.0826
WDR93 | 0.152 | 0.51 | 0.298 | 0.0424 | 0.349
CMA1 | 0.183 | 0.296 | 0.359 | 0.0207 | 0.169
METTL8 | 0.0948 | 0.063 | 0.266 | 0.0259 | 0.148
MBNL1 | 0.0899 | 0.486 | 0.291 | 0.0143 | 0.0359
PAQR6 | 0.137 | 0.38 | 0.248 | 0.0608 | 0.279
SERPINB4 | 0.134 | 0.25 | 0.333 | 0.0342 | 0.143
ATF7 | 0.0604 | 0.306 | 0.161 | 0.00468 | 0.21
ALPK3 | 0.0915 | 0.153 | 0.181 | 0.00356 | 0.181
HCN4 | 0.1 | 0.371 | 0.405 | 0.0326 | 0.259
NECTIN2 | 0.0537 | 0.228 | 0.238 | 0.015 | 0.125
TBC1D8B | 0.0499 | 0.546 | 0.275 | 0.0116 | 0.186
MAP1B | 0.12 | 0.111 | 0.317 | 0.0459 | 0.108
LTA | 0.236 | 0.312 | 0.662 | 0.0231 | 0.261
ZBED2 | 0.122 | 0.674 | 0.386 | 0.023 | 0.307
DDI2 | 0.0553 | 0.0672 | 0.21 | 0.0173 | 0.113
AFDN | 0.0914 | 0.161 | 0.369 | 0.0291 | 0.221
GPR84 | 0.156 | 0.227 | 0.521 | 0.0693 | 0.145
POM121L1P | 0.0805 | 0.241 | 0.205 | 0.013 | 0.258
COA4 | 0.103 | 0.28 | 0.332 | 0.0137 | 0.18
SLC13A1 | 0.0999 | 0.14 | 0.288 | 0.0153 | 0.122
PSENEN | 0.159 | 0.0754 | 0.302 | 0.0294 | 0.114
ZDHHC6 | 0.268 | 0.289 | 0.784 | 0.0628 | 0.318
MYEF2 | 0.0983 | 0.207 | 0.4 | 0.0302 | 0.455
REXO4 | 0.071 | 1.21 | 0.214 | 0.0242 | 0.162
IDH1 | 0.121 | 0.143 | 0.362 | 0.0182 | 0.0549
